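Uptake of anthrax lethal toxin into cultured cells, read by FRET (460/530 nm ratio) and reported from the 460 nm channel; the cell line is not named here. Each compound was tested as a concentration series from about 0.0005 to 40 µM. The number is the fitted AC50 of the 460 nm signal alone; lower values mean a more potent effect. A falling signal goes with compounds filed as inhibitors or cytotoxic, a rising one with activators or fluorescent compounds (inferred from the filed classes).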

Values are in nM. Common to all entries: measured here: 460 nm channel. This is a side read-out of the assay, for part of the compounds, not drawn at random. Potencies fitted to partial, single-point or poorly fitting curves are rough. The first word of each remark tells which way the curve ran; it can be opposite to the aim of the assay.

| compound | AC50 (nM) | remark |
|---|---|---|
| `S=c1[nH]nc(-c2ccc(Br)cc2)n1Cc1ccco1` | 5012 | rising, partial curve |
| `CCNc1ncc2nc(-c3ccccc3)c(=O)n(Cc3cccc(OC)c3)c2n1` | 2512 | rising, full curve |
| `OC(COc1ccc2cc(Br)ccc2c1)CN1CCCC1` (centres undefined) | 2512 | falling, full curve |
| `COc1ccc(NC(=O)N2CCCC3(CCN(C(=O)c4cccc(F)c4)CC3)C2)cc1` | 19952 | rising, partial curve |
| `O=c1c2c3nc4ccccc4nc3n(CC3CCCO3)c2ncn1CCc1ccccc1` (centres undefined) | 398.1 | rising, partial curve |
| `COc1ccc(OC)c(N=c2oc3cc(O)ccc3cc2C(N)=O)c1` | 10000 | rising, partial curve |
| `Cc1ccc(S(=O)(=O)c2c(N)n(NC(=O)C3CC3)c3nc4ccccc4nc23)cc1` | 631 | falling, single point |
| `COc1ccc2cc1Oc1ccc(cc1)C[C@@H]1c3c(cc(OC)c4c3Oc3cc5c(cc3O4)CCN[C@H]5C2)CCN1C` | 5012 | falling, single point |
| `NC(=S)N/N=C\c1c[nH]c2ccccc12` | 2512 | rising, partial curve |
| `N#CC1=C(N)C(C#N)(C#N)[C@H](c2ccoc2)[C@H]2CN(Cc3ccccc3)CC=C12` | 10000 | rising, partial curve |
| `CSC1=NC2(CCCCC2)C2=C(CCCC2)N1` | 501.2 | rising, full curve |
| `CCc1ccccc1Nc1ccc(C(=O)O)cc1N` | 19952 | falling, partial curve |
| `CCOC(=O)C1CCN(C(C)C(=O)c2c(C)[nH]c3cc(C)ccc23)CC1` (centres undefined) | 2512 | rising, single point |
| `Cc1cc(C(=O)OCC(=O)N2CCN(C(=O)c3ccco3)CC2)c(C)n1-c1ccc(F)cc1` | 3162 | falling, partial curve |
| `CC(C)CC(N)C1(c2ccc(Cl)cc2)CCC1` (centres undefined) | 12589 | falling, single point |
| `CCOC(=O)c1c(COc2ccccc2)oc2ccc(O)cc12` | 31622 | falling, single point |
| `O=C1C2CCN(CC2)C1(CO)CO` | 12589 | rising, partial curve |
| `N#CCCn1c(=O)c(-c2ccc(Cl)cc2)nc2cnc(Oc3cccc(Cl)c3)nc21` | 10000 | rising, partial curve |
| `COCCCNc1ncnc2nc[nH]c12` | 12589 | falling, partial curve, poor fit |
| `C=C1c2cc(CC)ccc2NC(=O)N1c1ccc(C)cc1` | 12589 | falling, partial curve |
| `Cc1ccc(OCCN2CCN(C(=O)CCC(=O)Nc3nnc(C)s3)CC2)cc1` | 5012 | falling, single point |
| `COc1ccc2c(c[n+](C)c3c4cc5c(cc4ccc23)OCO5)c1OC` | 25118 | falling, partial curve |
| `CN(C)c1ncc2nc(-c3ccc(Cl)cc3)c(=O)n(Cc3cccs3)c2n1` | 1995 | rising, full curve |
| `N[C@@H](Cn1cc(F)c(=O)[nH]c1=O)C(=O)O` | 12589 | falling, single point |
| `Cc1ccc(C)c(S(=O)(=O)N2CCC(c3nc4c(nnn4Cc4ccc(F)cc4)c(=O)[nH]3)CC2)c1` | 3162 | rising, single point |
| `COC(=O)CSc1nc2ccc(NC(=O)CSc3nnnn3Cc3ccccc3)cc2s1` | 7943 | falling, partial curve |
| `COc1ccc(CN2CCN(c3cc(C)nc4c5c(C)cc(C)nc5nn34)CC2)cc1F` | 5012 | rising, partial curve |
| `COc1cc([C@H]2c3cc4c(cc3[C@@H](O)[C@@H]3COC(=O)[C@H]23)OCO4)cc(OC)c1OC` | 501.2 | falling, full curve |
| `CCCCCn1c(CNC(=O)c2cccs2)nc2ccccc21` | 5012 | rising, single point |
| `CCC(=O)N1c2ccccc2[C@@H](N(C(C)=O)c2ccccc2)C[C@H]1C` | 5012 | rising, single point |
| `CCCC[C@H]1C[C@@H]1[C@@H]1N(P(=O)(c2ccccc2)c2ccccc2)[C@](CO)(c2ccccc2)CC12CC2` | 631 | falling, full curve |
| `O=C(CSc1nc2scc(-c3ccco3)c2c(=O)n1-c1ccccc1)NCC1CCCO1` (centres undefined) | 12589 | falling, partial curve, poor fit |

2 of the entries, repeated:

For COc1ccc2c(c[n+](C)c3c4cc5c(cc4ccc23)OCO5)c1OC the result was AC50 25118 nM (falling, partial curve).
For CCNc1ncc2nc(-c3ccccc3)c(=O)n(Cc3cccc(OC)c3)c2n1 the result was AC50 2512 nM (rising, full curve).

Data taken from PubChem BioAssay AID912, deposited by NCATS (2007).